# Experimental data: patent publication US6730064B2, “Coated implantable medical device” (Cook Incorporated, priority 1998, dated 2004)
# Experiment: Passive loading of radio-labeled antibody on parylene coated GR II stent
# Type: physicochemical
# Details: parylene coated stent immersed approx. 24 hours in 1 mg/ml antibody, pH=7.2, 37° C.
substance,measurement,value
c7E3 Fab: chimeric monoclonal antibody acting on platelet GP IIb/IIIa integrin to inhibit aggregation,antibody loaded per mm^2 stent surface area,approximately 0.10 μg per mm^2
same,total antibody loaded for a 3×20 mm GR II stent,approximately 10 μg
